Assay results taken from US20190015473A1 (MIT, published 2019).
No constants are given. Whether binding was seen depends on the method and setting. In cells and extracts the contact can be indirect. Some results given as binding are weak or reduced against the parent protein; the word gives no strength.

Sequences of proteins named here, by UniProt entry; tags and fusion partners are left off.
UniProt O70494: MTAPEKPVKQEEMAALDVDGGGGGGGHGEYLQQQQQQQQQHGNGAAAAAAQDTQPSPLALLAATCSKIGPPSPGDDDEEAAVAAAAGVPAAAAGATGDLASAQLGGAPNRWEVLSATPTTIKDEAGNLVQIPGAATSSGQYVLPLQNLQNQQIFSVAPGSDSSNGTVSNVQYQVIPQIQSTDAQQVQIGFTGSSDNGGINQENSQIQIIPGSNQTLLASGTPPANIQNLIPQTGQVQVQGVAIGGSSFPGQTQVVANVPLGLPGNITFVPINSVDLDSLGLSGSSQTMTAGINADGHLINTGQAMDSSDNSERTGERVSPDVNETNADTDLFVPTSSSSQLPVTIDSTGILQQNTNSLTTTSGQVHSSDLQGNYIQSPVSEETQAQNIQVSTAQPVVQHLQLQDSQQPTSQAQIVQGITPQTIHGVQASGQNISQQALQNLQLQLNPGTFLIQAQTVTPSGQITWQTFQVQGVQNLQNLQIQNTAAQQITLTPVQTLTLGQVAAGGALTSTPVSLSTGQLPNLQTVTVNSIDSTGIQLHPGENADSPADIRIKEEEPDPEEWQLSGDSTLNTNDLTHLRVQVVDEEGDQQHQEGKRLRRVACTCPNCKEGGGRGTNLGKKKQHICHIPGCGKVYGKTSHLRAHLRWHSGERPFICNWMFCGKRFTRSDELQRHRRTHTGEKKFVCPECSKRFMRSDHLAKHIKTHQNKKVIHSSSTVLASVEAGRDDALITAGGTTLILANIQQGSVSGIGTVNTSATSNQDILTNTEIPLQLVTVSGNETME

Assays:
[1] = biological target: histone deacetylase 2 (HDAC2), endogenous, mouse brain tissue (mouse) (UniProt P70288); assay: co-IP with anti-HDAC2 antibody from mouse cortex, western blot with anti-Tdp2
[2] = biological target: transcription factor Sp3 (Sp3), endogenous (mouse) (UniProt O70494); assay: co-immunoprecipitation (anti-Flag) from transfected N2A cells, western blot

| Binder | binding [1] | binding [2] |
| --- | --- | --- |
| Tdp2 (protein, mouse, UniProt Q9JJX7 1-370, looked up) MASGSSSDAAEPAGPAGRAASAPEAAQAEEDRVKRRRLQCLGFALVGGCDPTMVPSVLRENDWQTQKALSAYFELPENDQGWPRQPPTSFKSEAYVDLTNEDANDTTILEASPSGTPLEDSSTISFITWNIDGLDGCNLPERARGVCSCLALYSPDVVFLQEVIPPYCAYLKKRAASYTIITGNEEGYFTAILLKKGRVKFKSQEIIPFPNTKMMRNLLCVNVSLGGNEFCLMTSHLESTREHSAERIRQLKTVLGKMQEAPDSTTVIFAGDTNLRDQEVIKCGGLPDNVFDAWEFLGKPKHCQYTWDTKANNNLRIPAAYKHRFDRIFFRAEEGHLIPQSLDLVGLEKLDCGRFPSDHWGLLCTLNVVL | binds |  |
| C-terminal domain of HDAC2 (termed 2C) fused with mCherry, flag-tagged (other, UniProt Q92769 390-488, looked up, The part order follows the printed name 'mCherry-2C'; the Flag position is unknown; also called mCherry-2C; HDAC2 C-terminal fragment (2C); not shown: Flag tag; mCherry (engineered red fluorescent protein)) VHEDSGDEDGEDPDKRISIRASDKRIACDEEFSDSEDEGEGGRRNVADHKKGAKKARIEEDKKETEDKKTDVKEEDKSKDNSGEKTDTKGTKSEQLSNP |  | binds |
